What all share (assay): cross-linking
Test [1] concerns the target RplL (E. coli (endogenous in K12 MG1655)) (UniProt P0A7K2).
Test [2] concerns the target AtpA (E. coli (endogenous in K12 MG1655)) (UniProt P0ABB0).
Test [3] addresses E. coli chaperone, HtpG (Hsp90) (E. coli (endogenous in K12 MG1655)) (UniProt P0A6Z3).
Test [4] has as its target HupA (E. coli (endogenous in K12 MG1655)) (UniProt P0ACF0).
The target in test [5] is T1, ModE (E. coli (endogenous in K12 MG1655)) (UniProt P0A9G8).
T1 sequence: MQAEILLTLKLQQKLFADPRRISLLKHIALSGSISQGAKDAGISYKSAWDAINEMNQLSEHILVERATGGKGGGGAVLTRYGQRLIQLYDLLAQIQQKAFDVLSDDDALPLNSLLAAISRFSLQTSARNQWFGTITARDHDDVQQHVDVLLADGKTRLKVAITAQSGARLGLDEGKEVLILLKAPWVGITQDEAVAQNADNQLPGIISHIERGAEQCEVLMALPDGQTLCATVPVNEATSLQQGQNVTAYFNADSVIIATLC

Chains of the proteins cited; added tags and fusions are not shown. Residues count along the entry.
UniProt P0ABB0: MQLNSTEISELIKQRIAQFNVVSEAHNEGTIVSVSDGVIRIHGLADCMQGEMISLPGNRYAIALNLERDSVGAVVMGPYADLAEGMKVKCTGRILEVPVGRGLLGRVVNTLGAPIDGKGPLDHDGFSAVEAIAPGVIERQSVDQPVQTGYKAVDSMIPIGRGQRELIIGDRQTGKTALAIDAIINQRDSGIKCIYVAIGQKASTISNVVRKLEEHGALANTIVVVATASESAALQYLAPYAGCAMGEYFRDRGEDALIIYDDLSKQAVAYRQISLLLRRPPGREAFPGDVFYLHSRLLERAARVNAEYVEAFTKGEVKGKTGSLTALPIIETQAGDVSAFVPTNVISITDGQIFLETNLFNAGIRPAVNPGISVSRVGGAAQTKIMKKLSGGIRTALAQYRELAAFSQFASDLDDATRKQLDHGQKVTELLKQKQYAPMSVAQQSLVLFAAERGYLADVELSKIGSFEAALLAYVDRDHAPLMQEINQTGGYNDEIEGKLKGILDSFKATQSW
UniProt P0A6Z3: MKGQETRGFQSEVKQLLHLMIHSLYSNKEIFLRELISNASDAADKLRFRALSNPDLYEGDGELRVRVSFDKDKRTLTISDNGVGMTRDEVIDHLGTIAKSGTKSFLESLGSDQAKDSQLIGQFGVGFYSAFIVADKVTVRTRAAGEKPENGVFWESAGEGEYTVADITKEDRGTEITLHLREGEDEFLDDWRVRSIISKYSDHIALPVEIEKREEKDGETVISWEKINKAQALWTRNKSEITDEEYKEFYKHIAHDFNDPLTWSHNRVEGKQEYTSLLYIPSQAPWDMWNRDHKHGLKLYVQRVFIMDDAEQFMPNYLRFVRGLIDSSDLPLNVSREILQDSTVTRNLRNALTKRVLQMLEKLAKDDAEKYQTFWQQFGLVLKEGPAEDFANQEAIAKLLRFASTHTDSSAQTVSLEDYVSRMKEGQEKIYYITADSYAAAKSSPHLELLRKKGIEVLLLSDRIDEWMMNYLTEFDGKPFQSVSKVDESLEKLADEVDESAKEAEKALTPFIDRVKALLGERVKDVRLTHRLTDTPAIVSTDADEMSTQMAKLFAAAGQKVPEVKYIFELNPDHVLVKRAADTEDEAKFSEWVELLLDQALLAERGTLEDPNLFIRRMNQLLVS
UniProt P0ACF0: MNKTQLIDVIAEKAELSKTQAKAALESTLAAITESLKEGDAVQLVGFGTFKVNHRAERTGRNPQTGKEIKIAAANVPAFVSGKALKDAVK
UniProt P69783: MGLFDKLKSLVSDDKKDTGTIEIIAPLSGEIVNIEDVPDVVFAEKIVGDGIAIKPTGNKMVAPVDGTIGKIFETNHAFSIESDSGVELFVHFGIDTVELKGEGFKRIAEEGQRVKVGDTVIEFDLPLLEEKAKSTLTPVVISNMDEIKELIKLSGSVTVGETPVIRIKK
UniProt P06959: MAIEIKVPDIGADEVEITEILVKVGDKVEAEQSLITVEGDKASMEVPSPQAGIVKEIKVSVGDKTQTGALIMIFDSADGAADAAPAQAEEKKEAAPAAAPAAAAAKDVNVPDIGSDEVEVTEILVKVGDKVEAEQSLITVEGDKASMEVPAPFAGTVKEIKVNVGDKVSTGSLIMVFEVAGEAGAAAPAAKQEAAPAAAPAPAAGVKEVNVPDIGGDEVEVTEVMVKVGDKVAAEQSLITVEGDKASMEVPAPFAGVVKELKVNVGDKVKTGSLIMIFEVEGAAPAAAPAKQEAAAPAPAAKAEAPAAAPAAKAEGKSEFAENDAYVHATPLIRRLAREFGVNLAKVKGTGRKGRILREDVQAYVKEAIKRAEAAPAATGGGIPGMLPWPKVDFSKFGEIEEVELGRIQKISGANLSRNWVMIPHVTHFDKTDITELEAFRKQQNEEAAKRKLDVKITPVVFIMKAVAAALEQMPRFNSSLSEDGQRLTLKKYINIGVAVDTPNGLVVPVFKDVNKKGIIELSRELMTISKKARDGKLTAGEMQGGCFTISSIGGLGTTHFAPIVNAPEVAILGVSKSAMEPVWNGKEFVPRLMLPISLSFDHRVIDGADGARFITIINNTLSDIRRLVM
UniProt P0A6M8: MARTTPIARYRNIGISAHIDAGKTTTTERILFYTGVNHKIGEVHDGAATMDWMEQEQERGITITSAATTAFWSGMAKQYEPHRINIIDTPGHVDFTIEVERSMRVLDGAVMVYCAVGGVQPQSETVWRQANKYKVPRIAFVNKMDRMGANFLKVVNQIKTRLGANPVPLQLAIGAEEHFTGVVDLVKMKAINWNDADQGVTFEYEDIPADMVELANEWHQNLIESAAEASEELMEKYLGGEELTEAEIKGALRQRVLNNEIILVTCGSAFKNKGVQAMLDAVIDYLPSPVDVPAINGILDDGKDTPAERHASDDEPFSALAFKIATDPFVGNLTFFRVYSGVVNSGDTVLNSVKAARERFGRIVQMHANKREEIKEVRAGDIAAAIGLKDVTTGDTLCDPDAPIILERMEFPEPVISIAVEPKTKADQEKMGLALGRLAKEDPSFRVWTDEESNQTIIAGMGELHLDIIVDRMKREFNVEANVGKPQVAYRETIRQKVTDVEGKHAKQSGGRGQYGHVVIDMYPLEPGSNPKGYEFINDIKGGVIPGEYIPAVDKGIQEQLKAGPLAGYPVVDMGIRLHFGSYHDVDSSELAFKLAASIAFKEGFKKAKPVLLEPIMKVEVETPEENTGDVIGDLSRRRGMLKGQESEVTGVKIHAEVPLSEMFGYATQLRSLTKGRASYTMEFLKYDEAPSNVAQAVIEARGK
UniProt P00959: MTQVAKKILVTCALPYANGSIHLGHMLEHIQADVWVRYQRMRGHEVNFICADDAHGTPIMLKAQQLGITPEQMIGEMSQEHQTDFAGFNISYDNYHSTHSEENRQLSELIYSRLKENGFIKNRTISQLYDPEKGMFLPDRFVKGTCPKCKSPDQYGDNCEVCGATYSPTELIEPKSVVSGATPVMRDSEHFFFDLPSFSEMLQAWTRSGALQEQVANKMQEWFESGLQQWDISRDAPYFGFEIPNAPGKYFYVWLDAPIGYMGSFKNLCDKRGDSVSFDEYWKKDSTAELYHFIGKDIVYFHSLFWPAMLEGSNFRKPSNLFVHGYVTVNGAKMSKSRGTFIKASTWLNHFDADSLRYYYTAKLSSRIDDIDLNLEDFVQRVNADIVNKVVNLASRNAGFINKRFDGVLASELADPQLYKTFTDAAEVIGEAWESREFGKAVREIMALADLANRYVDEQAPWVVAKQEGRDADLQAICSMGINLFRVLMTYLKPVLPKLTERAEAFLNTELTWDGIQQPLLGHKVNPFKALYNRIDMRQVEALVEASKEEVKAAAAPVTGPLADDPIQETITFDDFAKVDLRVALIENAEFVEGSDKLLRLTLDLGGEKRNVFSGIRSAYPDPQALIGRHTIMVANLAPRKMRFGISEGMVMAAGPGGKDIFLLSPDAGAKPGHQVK
UniProt P0A8M3: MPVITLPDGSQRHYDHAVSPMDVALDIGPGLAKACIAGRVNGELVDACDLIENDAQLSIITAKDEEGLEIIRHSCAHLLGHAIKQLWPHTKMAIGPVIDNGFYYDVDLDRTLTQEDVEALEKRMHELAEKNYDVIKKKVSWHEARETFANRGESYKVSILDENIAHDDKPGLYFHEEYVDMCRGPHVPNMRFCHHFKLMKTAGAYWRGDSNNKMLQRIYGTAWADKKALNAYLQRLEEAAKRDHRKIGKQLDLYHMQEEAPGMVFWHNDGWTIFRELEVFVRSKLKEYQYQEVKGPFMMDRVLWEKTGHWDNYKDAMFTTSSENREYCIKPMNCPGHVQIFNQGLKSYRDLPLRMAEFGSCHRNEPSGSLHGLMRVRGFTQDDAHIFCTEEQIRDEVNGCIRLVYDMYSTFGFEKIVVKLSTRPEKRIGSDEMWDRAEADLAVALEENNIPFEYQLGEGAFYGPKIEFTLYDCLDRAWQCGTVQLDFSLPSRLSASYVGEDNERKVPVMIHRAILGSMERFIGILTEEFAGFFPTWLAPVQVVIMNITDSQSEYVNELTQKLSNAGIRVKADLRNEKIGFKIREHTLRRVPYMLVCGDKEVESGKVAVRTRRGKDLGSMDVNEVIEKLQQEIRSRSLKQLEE
UniProt P0ABA0: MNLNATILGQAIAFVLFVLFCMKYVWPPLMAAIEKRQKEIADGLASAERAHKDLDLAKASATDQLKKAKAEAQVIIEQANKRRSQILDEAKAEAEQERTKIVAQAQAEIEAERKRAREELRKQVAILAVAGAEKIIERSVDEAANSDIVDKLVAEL
UniProt P0ABZ6, residues 21-428: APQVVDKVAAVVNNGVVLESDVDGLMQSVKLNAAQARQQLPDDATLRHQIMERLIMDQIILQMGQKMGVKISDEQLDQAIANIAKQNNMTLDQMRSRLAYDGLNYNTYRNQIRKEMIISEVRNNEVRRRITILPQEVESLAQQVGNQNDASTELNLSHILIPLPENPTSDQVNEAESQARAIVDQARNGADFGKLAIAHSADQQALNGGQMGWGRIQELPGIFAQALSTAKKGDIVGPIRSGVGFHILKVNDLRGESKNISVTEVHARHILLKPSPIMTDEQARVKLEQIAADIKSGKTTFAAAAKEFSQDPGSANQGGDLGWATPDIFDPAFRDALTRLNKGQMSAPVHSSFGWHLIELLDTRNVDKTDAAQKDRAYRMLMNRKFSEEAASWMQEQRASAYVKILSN

Test [6] deals with RplL (E. coli (endogenous in K12 MG1655)) (UniProt P0A7K2). This is another data set of the same source.
Test [7] deals with Crr (E. coli (endogenous in K12 MG1655)) (UniProt P69783).
Test [8] addresses pyruvate dehydrogenase (AceF) (E. coli (endogenous in K12 MG1655)) (UniProt P06959).
In test [9] the target is T2, Pgk (E. coli (endogenous in K12 MG1655)) (UniProt P0A799).
T2 sequence: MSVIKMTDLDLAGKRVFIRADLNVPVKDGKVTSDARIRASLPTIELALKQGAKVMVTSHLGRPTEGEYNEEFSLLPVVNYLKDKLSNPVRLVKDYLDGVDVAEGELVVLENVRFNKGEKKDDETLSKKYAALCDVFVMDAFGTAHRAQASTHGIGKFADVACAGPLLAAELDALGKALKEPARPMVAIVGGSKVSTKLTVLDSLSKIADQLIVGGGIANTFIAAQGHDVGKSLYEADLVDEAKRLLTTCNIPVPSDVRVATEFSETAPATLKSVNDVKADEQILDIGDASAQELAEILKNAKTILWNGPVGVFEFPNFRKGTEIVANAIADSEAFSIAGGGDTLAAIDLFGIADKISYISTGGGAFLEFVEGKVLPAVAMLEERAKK

The target of test [10] is TrpS (E. coli (endogenous in K12 MG1655)) (UniProt P00954).

Where two headings read alike, the source gives them in different places. No constants are given. Whether binding was seen depends on the method and setting. In cells and extracts the contact can be indirect. Some entries that bind do so weakly or less than the wild type.

Among the data in publication doi:10.1101/2022.09.20.508727 are binding values, retold here.

Regarding “GTPase elongation factor EF-G (FusA) (from UniProt P0A6M8 1-704)”, the binding result in test [1] is reported as “binds”.
On the same count and under the same terms, with “aminoacyl-tRNA synthetase MetG (from UniProt P00959 1-677) (enzyme)” the entry was “binds”.
Still for that read-out and setting: under “aminoacyl-tRNA synthetase ThrS (from UniProt P0A8M3 1-642) (enzyme)” stands “binds”; under “co-translational chaperone DnaK (Hsp70) (from UniProt P0A6Y8 1-638)”, “binds”.
Turning to AtpF (from UniProt P0ABA0 1-156), the binding entry in [2] is listed as “binds”.
“periplasmic chaperone, SurA (from UniProt P0ABZ6 21-428)”: the binding result in test [3] was “binds”.
NusA (from UniProt P0AFF6 1-495): the binding result in [4] is “binds”.

B1: SsuB (protein, UniProt P0AAI1 1-255)
chain: MNTARLNQGTPLLLNAVSKHYAENIVLNQLDLHIPAGQFVAVVGRSGGGKSTLLRLLAGLETPTAGDVLAGTTPLAEIQEDTRMMFQDARLLPWKSVIDNVGLGLKGQWRDAARRALAAVGLENRAGEWPAALSGGQKQRVALARALIHRPGLLLLDEPLGALDALTRLEMQDLIVSLWQEHGFTVLLVTHDVSEAVAMADRVLLIEEGKIGLDLTVDIPRPRRLGSVRLAELEAEVLQRVMQRGESETRLRKQG
For the molecule B1, in [5], the binding result was “binds”.

B2: methyltransferase RsmG (enzyme, UniProt P0A6U5 1-207)
chain: MLNKLSLLLKDAGISLTDHQKNQLIAYVNMLHKWNKAYNLTSVRDPNEMLVRHILDSIVVAPYLQGERFIDVGTGPGLPGIPLSIVRPEAHFTLLDSLGKRVRFLRQVQHELKLENIEPVQSRVEEFPSEPPFDGVISRAFASLNDMVSWCHHLPGEQGRFYALKGQMPEDEIALLPEEYQVESVVKLQVPALDGERHLVVIKANKI
Take B2: in test [6], the binding result is “binds”.

B3: SelA (protein, UniProt P0A821 1-463)
chain: MTTETRSLYSQLPAIDRLLRDSSFLSLRDTYGHTRVVELLRQMLDEAREVIRGSQTLPAWCENWAQEVDARLTKEAQSALRPVINLTGTVLHTNLGRALQAEAAVEAVAQAMRSPVTLEYDLDDAGRGHRDRALAQLLCRITGAEDACIVNNNAAAVLLMLAATASGKEVVVSRGELVEIGGAFRIPDVMRQAGCTLHEVGTTNRTHANDYRQAVNENTALLMKVHTSNYSIQGFTKAIDEAELVALGKELDVPVVTDLGSGSLVDLSQYGLPKEPMPQELIAAGVSLVSFSGDKLLGGPQAGIIVGKKEMIARLQSHPLKRALRADKMTLAALEATLRLYLHPEALSEKLPTLRLLTRSAEVIQIQAQRLQAPLAAHYGAEFAVQVMPCLSQIGSGSLPVDRLPSAALTFTPHDGRGSHLESLAARWRELPVPVIGRIYDGRLWLDLRCLEDEQRFLEMLLK
Take B3: in test [7], the binding result is “binds”.

B4: zinc-binding dehydrogenase, YdjJ (protein, UniProt P77280 1-347)
chain: MKNSKAILQVPGTMKIISAEIPVPKEDEVLIKVEYVGICGSDVHGFESGPFIPPKDPNQEIGLGHECAGTVVAVGSRVRKFKPGDRVNIEPGVPCGHCRYCLEGKYNICPDVDFMATQPNYRGALTHYLCHPESFTYKLPDNMDTMEGALVEPAAVGMHAAMLADVKPGKKIIILGAGCIGLMTLQACKCLGATEIAVVDVLEKRLAMAEQLGATVVINGAKEDTIARCQQFTEDMGADIVFETAGSAVTVKQAPYLVMRGGKIMIVGTVPGDSAINFLKINREVTIQTVFRYANRYPVTIEAISSGRFDVKSMVTHIYDYRDVQQAFEESVNNKRDIIKGVIKISD
Regarding B4, in test [8], the binding entry was “binds”.

B5: methyltransferase RlmI (enzyme, UniProt P75876 1-396)
chain: MSVRLVLAKGREKSLLRRHPWVFSGAVARMEGKASLGETIDIVDHQGKWLARGAYSPASQIRARVWTFDPSESIDIAFFSRRLQQAQKWRDWLAQKDGLDSYRLIAGESDGLPGITIDRFGNFLVLQLLSAGAEYQRAALISALQTLYPECSIYDRSDVAVRKKEGMELTQGPVTGELPPALLPIEEHGMKLLVDIQHGHKTGYYLDQRDSRLATRRYVENKRVLNCFSYTGGFAVSALMGGCSQVVSVDTSQEALDIARQNVELNKLDLSKAEFVRDDVFKLLRTYRDRGEKFDVIVMDPPKFVENKSQLMGACRGYKDINMLAIQLLNEGGILLTFSCSGLMTSDLFQKIIADAAIDAGRDVQFIEQFRQAADHPVIATYPEGLYLKGFACRVM
Turning to B5, the binding result in test [6] is on record as “binds”.

B6: lipoate synthase (LipA) (enzyme, UniProt P60716 1-321)
chain: MSKPIVMERGVKYRDADKMALIPVKNVATEREALLRKPEWMKIKLPADSTRIQGIKAAMRKNGLHSVCEEASCPNLAECFNHGTATFMILGAICTRRCPFCDVAHGRPVAPDANEPVKLAQTIADMALRYVVITSVDRDDLRDGGAQHFADCITAIREKSPQIKIETLVPDFRGRMDRALDILTATPPDVFNHNLENVPRIYRQVRPGADYNWSLKLLERFKEAHPEIPTKSGLMVGLGETNEEIIEVMRDLRRHGVTMLTLGQYLQPSRHHLPVQRYVSPDEFDEMKAEALAMGFTHAACGPFVRSSYHADLQAKGMEVK
On to B6, for which, in test [8], the binding result is “binds”.

B7: phosphoglycerate dehydrogenase (SerA) (enzyme, UniProt P0A9T0 1-410)
chain: MAKVSLEKDKIKFLLVEGVHQKALESLRAAGYTNIEFHKGALDDEQLKESIRDAHFIGLRSRTHLTEDVINAAEKLVAIGCFCIGTNQVDLDAAAKRGIPVFNAPFSNTRSVAELVIGELLLLLRGVPEANAKAHRGVWNKLAAGSFEARGKKLGIIGYGHIGTQLGILAESLGMYVYFYDIENKLPLGNATQVQHLSDLLNMSDVVSLHVPENPSTKNMMGAKEISLMKPGSLLINASRGTVVDIPALCDALASKHLAGAAIDVFPTEPATNSDPFTSPLCEFDNVLLTPHIGGSTQEAQENIGLEVAGKLIKYSDNGSTLSAVNFPEVSLPLHGGRRLMHIHENRPGVLTALNKIFAEQGVNIAAQYLQTSAQMGYVVIDIEADEDVAEKALQAMKAIPGTIRARLLY
Regarding B7, in [8], the binding result was “binds”.

B8: carbon-nitrogen hydrolase family protein, YobB (protein, UniProt P76280 1-218)
chain: MSFWKVAAAQYEPRKTSLTEQVAHHLEFVRAAARQQCQLLVFPSLSLLGCDYSRRALPAPPDLSLLDPLCYAATTWRMTIIAGLPVEYNDRFIRGIAVFAPWRKTPGIYHQSHGACLGRRSRTITVVDEQPQGMDMDPTCSLFTTGQCLGEPDLLASARRLQFFSHQYSIAVLMANARGNSALWDEYGRLIVRADRGSLLLVGQRSSQGWQGDIIPLR
As for B8, the binding result in [8] is “binds”.

B9: KpLE2 phage-like protein, YjhV (protein, UniProt Q47719 1-137)
chain: MVGYHQTNQKTDTGKTLTRRPVLVDHNRLPEGSRGRLAVAVAGDHPAAVQVTMTLVNDTGFDPVFSGSIAESWRQQPCTPSYCCDWEAATMLRAFPLAKKGEGRARLPSLYASFGKLGETPTHEDIIDNNRSINWPV
As for B9, the binding result in test [8] was “binds”.

B10: LafU (protein, UniProt Q47154 1-211)
chain: MAVPEETEKKARDVNEKTALLKKKSATELGELATSINTIARDAHMEANLEMEIVPQGLRVLIKDDQNRNMFERGSAKIMPFFKTLLVELAPVFDSLDNKIIITGHTDAMAYKNNIYNNWNLSGDRALSARRVLEEAGMPEDKVMQVSAMADQMLLDSKNPQSAGNRRIEIMVLTKSASDTLYQYFGQHGDKVVQPLVQKLDKQQVLSQRTR
For B10, in test [9], the binding result is “binds”.

B11: YgeH (protein, UniProt P76639 1-458)
chain: MDLENKFSYHFLEGLTLTEDGILTQGNEQVYIPQKELGVLIVLLESAGHVVLKDMIIESVWKNIIVSDESLTRCIYSLRCIFEKIGYDRCIETIYRKGYRFSGQVFKTKINEDNTSDYSIAIFPFTTSLNTLDPLILNQELVQIISNKKIDGLYTYPMAATNFCNDHISQNSFLSRFKPDYFVTGRINQNNAVNTLYIELIDAKNLFLIASNHLPVDELHNTSQFIIDNILQTVHKPERSVRLAKQDQGYKNHYLSDEMLAGKKELYDFTPESIYRAMTIFDRLQNKSDIQTLKTECYCLLAECHMSLALHGKSELELAAQKALELLDYVSDITTVDGKILAIMGLITGLSGQAKVSHILFEQAKIHSTDIASLYYYRALVHFHNEKIEEARICIDKSLQLEPRRRKAVVIKECVDMYVPNPLKNNIKLYYKETESESHRVIIDNILKLKQLTRICMR
Turning to B11, in test [6], the binding entry is reported as “binds”.

B12: Pgk (protein, UniProt P0A799 1-387)
chain: MSVIKMTDLDLAGKRVFIRADLNVPVKDGKVTSDARIRASLPTIELALKQGAKVMVTSHLGRPTEGEYNEEFSLLPVVNYLKDKLSNPVRLVKDYLDGVDVAEGELVVLENVRFNKGEKKDDETLSKKYAALCDVFVMDAFGTAHRAQASTHGIGKFADVACAGPLLAAELDALGKALKEPARPMVAIVGGSKVSTKLTVLDSLSKIADQLIVGGGIANTFIAAQGHDVGKSLYEADLVDEAKRLLTTCNIPVPSDVRVATEFSETAPATLKSVNDVKADEQILDIGDASAQELAEILKNAKTILWNGPVGVFEFPNFRKGTEIVANAIADSEAFSIAGGGDTLAAIDLFGIADKISYISTGGGAFLEFVEGKVLPAVAMLEERAKK
For B12, the binding result in [10] is reported as “binds”.
